From article PMC5282554

Chains of the proteins cited; added tags and fusions are not shown. Residues count along the entry.
UniProt P51608, 78-162: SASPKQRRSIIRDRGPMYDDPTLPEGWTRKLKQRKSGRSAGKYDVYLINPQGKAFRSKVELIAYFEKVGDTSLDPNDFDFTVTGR

Molecular target: MeCP2 MBD (UniProt P51608)
Experiment: ITC
Settings: 150 mM NaCl, ~1000-fold affinity decrease, not reliably determined, ITC: Tris 50 mM, pH 7, 20 °C (also 15 and 17.5 °C; Pipes or phosphate 50 mM, pH 7), no added NaCl unless stated, protein 3-5 uM in cell, dsDNA 50 uM titrant, recombinant protein, protein details: His-tag removed (PreScission)

Row | Sequence | binding result (5-methylcytosine at C15 of strand 1 and C30 of strand 2 (symmetric mCpG)) | binding result
1 | GCCATGCCCTGGAACGGAACTCTCCTAATAAAAGATGTATCATTT (double strand) [BDNF promoter IV 45 bp mCpG] | binds more weakly | –
2 | GCCATGCCCTGGAACGGAACTCTCCTAATAAAAGATGTATCATTT (double strand) [BDNF promoter IV 45 bp unmethylated] | – | binds more weakly

The exact form of at least one protein or probe is not confirmed. The comparison behind a weaker result is the experiment's own reference, which may not be listed here. At least one verdict was read from the data and is not stated in words by the source.
